From PubChem BioAssay AID493014 (National Center for Advancing Translational Sciences (NCATS), 2011)
Some of the results follow. Shown are side measurements of this screen, not its main read-out; they come without a call. Compounds called inactive in the main read-out are mostly missing here. The note in brackets gives the kind of curve behind each potency; many fits are weak.

Experiment: qHTS Assay to Find Inhibitors of Chronic Active B-Cell Receptor Signaling
Conditions: ABC-DLBCL IkBa-CBG/CBR reporter, luminescence ratio (green luciferase fused to IkBa over red control in TMD8 lymphoma cells), 4 h
Summary of the method: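 Compounds up to 46 uM were incubated four hours with TMD8 cells whose green CBG68 luciferase is fused to IkappaBalpha; red CBR luminescence normalised the signal, and concentration-effect curves were fitted to fusion, red and ratio data.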

[1] = measured here: CBR red luminescence, cell number
[2] = measured here: IkBa-CBG green luminescence

O=C(NC1CCN(C(=O)c2ccccc2Br)CC1)c1ccccc1
AC50 [1]: 5.62 µM [falling, single point]

Cc1cc(C)cc(-n2ncc3c2CCCC3NC(=O)C2CCC2)c1 (centres undefined)
AC50 [1]: 35.5 µM [rising, single point]

C=CCn1c(-c2ccc(OC)cc2)csc1=Nc1c(C)n(C)n(-c2ccccc2)c1=O
AC50 [1]: 6.51 µM [falling, single point]

NC(=S)N/N=C/c1cn(CCC(=O)O)nc1-c1cccc(Br)c1
AC50 [1]: 14.1 µM [rising, partial curve, poor fit]

CCOc1ccccc1NC(=O)Cn1nnc(C(=O)NCCc2ccc(OCC)c(OCC)c2)c1N
AC50 [1]: 12.6 µM [rising, partial curve, poor fit]

O=C(O)/C=C/c1coc2ccccc2c1=O
AC50 [1]: 9.2 µM [falling, partial curve]

CCCn1c(CNc2ccccc2O)nc2ccccc21
AC50 [1]: 18.4 µM [falling, partial curve, poor fit]

Cc1cc(N2CCC(C(=O)NC3CCCCC3)CC2)nc(-c2ccccc2)n1
AC50 [1]: 5.8 µM [rising, full curve, poor fit]

CC1CCCN(C(=O)Cc2cn(Cc3cccc(Cl)c3)c3ccccc23)C1 (centres undefined)
AC50 [2]: 23.1 µM [rising, partial curve, poor fit]

Cc1ccccc1OCc1nc(-c2cccnc2)no1
AC50 [1]: 0.112 µM [falling, full curve, poor fit]

O=C(O)/C=C\C(=O)Nc1ccc(OCc2ccccc2)cc1
AC50 [1]: 17.8 µM [falling, single point]

CN(C)c1ccc(N=Cc2nc(-c3ccccc3)oc2OC(=O)c2cccc(Br)c2)cc1
AC50 [1]: 13 µM [falling, partial curve]

Cc1cccc2sc(N(CCCN(C)C)C(=O)c3sc4ccccc4c3Cl)nc12
AC50 [1]: 4.61 µM [falling, partial curve]

c1ccc(N2CC3CCc4ccccc4C3=N2)cc1 (centres undefined)
AC50 [1]: 2.82 µM [rising, full curve]

CCOc1ccc(-c2nnc(-c3ccccc3)n2-c2ccccc2)cc1
AC50 [1]: 4.11 µM [rising, full curve, poor fit]

CCOC(=O)C(C(C)=O)c1nc(C)nc2c1nnn2Cc1ccccc1Cl (centres undefined)
AC50 [1]: 7.31 µM [falling, partial curve]
AC50 [2]: 4.61 µM [rising, partial curve, poor fit]

CN(CC(=O)Nc1ccc(Cl)c(Cl)c1)C(=O)CNC(=O)Cc1ccccc1
AC50 [1]: 20.6 µM [rising, single point]

Cc1ccc(NC(=O)COC(=O)CN2C(=O)C3CCCCC3C2=O)cc1S(=O)(=O)N1CCOCC1 (centres undefined)
AC50 [1]: 10.3 µM [rising, partial curve, poor fit]
